Measurements as given in paper PMC2952586.
Results are given in words; binding and its absence hold for the method and conditions named. In cells and extracts the contact can be indirect. Some entries that bind do so weakly or less than the wild type.

Legend:
TIA-1::RFP [1] = target: T1, TIA-1::RFP (UniProt P31483); test: co-IP; as a1, but lysates treated with RNase A (50 µg/ml) for 30 min at 37°C before the immunoprecipitation
T1 sequence: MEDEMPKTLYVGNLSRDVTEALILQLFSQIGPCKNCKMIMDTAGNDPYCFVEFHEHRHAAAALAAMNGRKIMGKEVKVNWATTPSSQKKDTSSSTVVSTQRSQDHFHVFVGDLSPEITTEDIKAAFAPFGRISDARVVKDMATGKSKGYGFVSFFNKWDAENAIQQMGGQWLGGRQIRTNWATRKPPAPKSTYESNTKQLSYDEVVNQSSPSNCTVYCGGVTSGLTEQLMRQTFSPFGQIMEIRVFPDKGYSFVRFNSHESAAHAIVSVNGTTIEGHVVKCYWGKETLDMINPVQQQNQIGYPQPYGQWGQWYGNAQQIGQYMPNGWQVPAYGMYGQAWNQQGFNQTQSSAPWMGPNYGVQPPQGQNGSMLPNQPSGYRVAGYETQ

TIA-1::RFP [2] = target: T1, TIA-1::RFP; test: co-IP; lysates of HEK 293 cells transfected 48 hrs with TDP-43::EGFP and/or TIA-1::RFP, not treated with RNase; immunoprecipitated with antibody to TIA-1, blotted with antibody to TDP-43; co-IP buffer 20 mM Tris-HCl pH 7.4, 150 mM NaCl, 1 mM EDTA, 1% Triton X-100

| binding (TIA-1::RFP [1]) | binding (TIA-1::RFP [2]) | Substance |
| --- | --- | --- |
| binds | binds | K82/84A TDP-43::EGFP (from UniProt Q13148-1 1-414) |
| binds | binds | WT TDP-43::EGFP (from UniProt Q13148-1 1-414) |
